Earlier results as cited in patent US20160151380A1, “THERAPIES FOR DISEASES CAUSED BY ARTHROPOD-BORNE PARASITES” (THE REGENTS OF THE UNIVERSITY OF CALIFORNIA, priority 2013, published 2016).
Structures were worked out from names or drawings and are uncertain.

Amino acid sequences for entries named in this document (tags omitted).
UniProt Q02156, whole entry: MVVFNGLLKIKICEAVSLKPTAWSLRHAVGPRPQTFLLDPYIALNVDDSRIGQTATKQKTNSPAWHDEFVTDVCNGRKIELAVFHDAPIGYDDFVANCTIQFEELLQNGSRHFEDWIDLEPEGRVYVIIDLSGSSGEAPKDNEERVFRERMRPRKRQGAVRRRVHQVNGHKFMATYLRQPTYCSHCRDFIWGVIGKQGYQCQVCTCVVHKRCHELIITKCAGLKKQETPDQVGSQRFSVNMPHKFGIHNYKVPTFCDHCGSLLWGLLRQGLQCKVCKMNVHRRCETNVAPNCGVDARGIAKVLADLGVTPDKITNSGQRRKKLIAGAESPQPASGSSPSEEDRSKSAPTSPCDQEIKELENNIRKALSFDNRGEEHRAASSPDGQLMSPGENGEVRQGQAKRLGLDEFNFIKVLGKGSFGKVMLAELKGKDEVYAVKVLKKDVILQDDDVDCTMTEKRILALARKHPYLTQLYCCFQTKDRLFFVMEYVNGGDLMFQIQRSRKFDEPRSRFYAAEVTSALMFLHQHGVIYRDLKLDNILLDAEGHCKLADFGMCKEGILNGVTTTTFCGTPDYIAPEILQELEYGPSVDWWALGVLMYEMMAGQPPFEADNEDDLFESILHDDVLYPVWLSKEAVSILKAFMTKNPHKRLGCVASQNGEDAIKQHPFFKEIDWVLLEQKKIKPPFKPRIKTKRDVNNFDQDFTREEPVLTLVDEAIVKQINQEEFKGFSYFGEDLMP
UniProt P53779, whole entry: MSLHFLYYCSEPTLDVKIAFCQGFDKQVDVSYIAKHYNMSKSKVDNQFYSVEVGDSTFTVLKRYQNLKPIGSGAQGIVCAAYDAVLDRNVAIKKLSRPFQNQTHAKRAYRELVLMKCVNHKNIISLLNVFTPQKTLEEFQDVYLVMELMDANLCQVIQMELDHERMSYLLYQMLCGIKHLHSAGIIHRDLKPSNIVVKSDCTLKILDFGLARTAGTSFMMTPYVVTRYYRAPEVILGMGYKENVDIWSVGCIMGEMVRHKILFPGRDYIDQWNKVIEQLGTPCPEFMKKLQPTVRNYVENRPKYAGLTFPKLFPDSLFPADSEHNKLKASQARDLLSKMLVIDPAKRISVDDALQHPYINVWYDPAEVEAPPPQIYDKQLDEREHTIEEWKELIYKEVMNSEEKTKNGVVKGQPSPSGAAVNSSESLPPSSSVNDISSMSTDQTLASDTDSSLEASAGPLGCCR
UniProt P45983, whole entry: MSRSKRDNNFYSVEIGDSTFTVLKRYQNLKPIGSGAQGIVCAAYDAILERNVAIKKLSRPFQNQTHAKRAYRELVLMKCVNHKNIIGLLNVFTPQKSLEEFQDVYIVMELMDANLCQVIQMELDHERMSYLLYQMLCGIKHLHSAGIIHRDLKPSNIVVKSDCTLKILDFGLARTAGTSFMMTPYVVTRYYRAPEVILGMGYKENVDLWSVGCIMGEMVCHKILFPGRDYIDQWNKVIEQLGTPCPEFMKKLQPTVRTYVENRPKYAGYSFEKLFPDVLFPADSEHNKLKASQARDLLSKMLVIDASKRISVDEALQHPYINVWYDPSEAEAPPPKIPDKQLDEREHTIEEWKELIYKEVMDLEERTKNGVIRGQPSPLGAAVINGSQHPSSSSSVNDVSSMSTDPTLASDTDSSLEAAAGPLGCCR

Experiments:
Settings in all cases: cited from earlier work
PKCepsilon = PKCepsilon (Homo sapiens, UniProt Q02156)
JNK3 = JNK3 (Homo sapiens, UniProt P53779)
JNK1 = JNK1 (Homo sapiens, UniProt P45983)

| Structure (SMILES) | IC50 (PKCepsilon) | further results |
| --- | --- | --- |
| O=C(N[C@@H]1CCC[C@H]1OC(=O)c1cc(O)c(C(=O)c2c(O)cccc2C(=O)O)c(O)c1)c1ccc(O)cc1 | 50 nM | – |
| CC(C)NCC(C(=O)N1CCN(c2ncnc3c2[C@H](C)CC3)CC1)c1ccc(Cl)cc1 (stereo partly shown) | – | Kd (JNK3): < 400 nM |
| O=C(N[C@@H]1CNC[C@H]1OC(=O)c1cc(O)c(C(=O)c2c(O)cccc2C(=O)O)c(O)c1)c1ccc(O)cc1 | 10 nM | – |
| Cc1ccc(C(=O)Nc2cccc(C(C)(C)C)c2)cc1-c1ccc(C(=O)NCC2CC2)cc1 | – | Kd (JNK1): < 1250 nM |
